Assay results as given in article PMC3294245.
No constants are given. Whether binding was seen depends on the method and setting. Binding seen in cells or lysates may run through a third protein. Some binding calls cover weakened binding; strength is not graded here.

Sequences of proteins named here, by UniProt entry; tags and fusion partners are left off. A change or cut given only in a name is not applied to a line headed by its entry. A line that says so, or that is headed by a name, gives the form on record, which may keep a tag or linker.
UniProt P06493: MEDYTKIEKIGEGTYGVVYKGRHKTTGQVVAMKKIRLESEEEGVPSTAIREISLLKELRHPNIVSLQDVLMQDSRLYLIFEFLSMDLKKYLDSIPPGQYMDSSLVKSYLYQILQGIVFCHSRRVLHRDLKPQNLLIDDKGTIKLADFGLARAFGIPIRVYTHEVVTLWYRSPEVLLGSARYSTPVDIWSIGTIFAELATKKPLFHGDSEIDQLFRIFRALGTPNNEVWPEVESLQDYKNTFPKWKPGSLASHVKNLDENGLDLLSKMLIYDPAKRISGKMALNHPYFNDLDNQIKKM
UniProt Q5MJ70: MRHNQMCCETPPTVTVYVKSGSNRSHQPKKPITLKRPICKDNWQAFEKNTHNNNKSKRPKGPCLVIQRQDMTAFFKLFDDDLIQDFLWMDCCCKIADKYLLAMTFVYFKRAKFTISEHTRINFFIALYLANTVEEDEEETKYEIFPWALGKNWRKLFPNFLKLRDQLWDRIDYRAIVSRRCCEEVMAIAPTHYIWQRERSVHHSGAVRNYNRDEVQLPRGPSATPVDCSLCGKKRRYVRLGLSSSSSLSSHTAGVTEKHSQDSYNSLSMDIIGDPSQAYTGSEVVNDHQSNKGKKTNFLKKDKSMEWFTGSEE
Myc-Spy1-TST/D90A (Q5MJ70, form named): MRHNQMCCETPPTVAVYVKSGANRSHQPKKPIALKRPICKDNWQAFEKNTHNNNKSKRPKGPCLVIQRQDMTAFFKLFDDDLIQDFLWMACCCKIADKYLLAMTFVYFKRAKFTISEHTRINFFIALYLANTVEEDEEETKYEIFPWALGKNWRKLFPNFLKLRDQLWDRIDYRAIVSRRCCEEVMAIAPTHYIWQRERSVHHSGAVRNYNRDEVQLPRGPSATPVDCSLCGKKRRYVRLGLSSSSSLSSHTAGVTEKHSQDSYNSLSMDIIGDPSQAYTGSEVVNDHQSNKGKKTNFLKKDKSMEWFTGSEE
Myc-Spy1-TST (Q5MJ70, form named): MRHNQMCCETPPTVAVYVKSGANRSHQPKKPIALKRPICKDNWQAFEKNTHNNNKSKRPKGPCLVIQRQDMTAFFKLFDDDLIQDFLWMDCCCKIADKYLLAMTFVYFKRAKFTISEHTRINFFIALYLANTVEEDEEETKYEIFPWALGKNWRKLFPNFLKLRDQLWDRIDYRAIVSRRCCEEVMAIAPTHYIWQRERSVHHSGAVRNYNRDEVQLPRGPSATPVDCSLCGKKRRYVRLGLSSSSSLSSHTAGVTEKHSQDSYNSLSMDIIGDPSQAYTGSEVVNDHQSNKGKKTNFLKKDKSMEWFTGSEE

Target: HA-Cdk1 (UniProt P06493)
Assay: co-IP; 293 cells co-transfected with HA-Cdk1 and Myc-Spy1 constructs; lysed in 0.1% NP-40 lysis buffer; IP for HA (Figure 4A) or for Myc or HA (Figure 5A, cells treated with 70 ng nocodazole for 16 h; IgG IP as negative control), protein A-Sepharose, immunoblot for Myc and HA

binding | Substance
no binding | Myc-Spy1-TST/D90A (from UniProt Q5MJ70 1-313)
binds | Myc-Spy1-TST (from UniProt Q5MJ70 1-313)
